Source: patent publication US4548819A, “Derivatives of 9-(2-hydroxyethoxymethyl) guanine” (priority 1983, dated 1985)
At least one compound was matched to its structure with a doubt left.

Tested on: HSV-1 (strain McIntyre)
Assay: Antiviral activity in vivo: HSV-1 stromal keratitis in rabbits, eye drops
Experimental: The in vivo antiviral activity of the compound of Example 1 was compared with the known antiviral bromovinyldeoxyuridine.
Eye drops containing 0.5% (w/v) of bromovinyldeoxyuridine or 1% w/v of compound of Example 1 were prepared in an isotonic borate buffer containing 1.52 g boric acid, 0.008 g borax and 0.01 g benzalkoniumchloride in 100 ml distilled water. The pH of the solution was 5.7. The vehicle alone without any antiviral ingredients was used as placebo. The eye drops were coded.
A cross-breed of California albino and Dendermonde white rabbits, weighing between 1.5 and 2 kg, were used.
Thirty rabbits were used to produce stromal keratitis according to the technique of McNeill and Kaufman (Arch. Ophthalmol. 97: 727-729, 1979). Rabbits were anesthetized by a subcutaneous injection of fentanyl citrate at 1 ml/kg. A 0.2 ml virus suspension, containing 10^4.5 plaque-forming units of HSV-1 (strain McIntyre) per ml, was injected into the central corneal stroma of both eyes.
The rabbits were numbered serially and allocated at random to three groups of […] rabbits each. Treatment consisted of administration of eye drops containing the compound of Example 1, bromovinyldeoxyuridine, or placebo eye drops. Treatment was started one day after virus inoculation. One drop of the eye drop formulation was instiled into the eye at hourly intervals, nine times as day. Therapy was continued for 5 consecutive days. Both eyes of each rabbit received the same modification.
The severity of keratitis was evaluated daily by the same person using a slitlamp. White illumination was used to examine the corneal stroma and anterior chamber structures. One percent fluorescein sodium eye drops and a cobalt blue filter were employed to judge epithelial keratitis and corneal ulceration.

[1] = eye drops, Example 1 at 1% w/v or bromovinyldeoxyuridine at 0.5% w/v
[2] = iritis accompanying stromal HSV-1 keratitis, eye drops

O=c1[nH]c(=O)n([C@H]2C[C@H](O)[C@@H](CO)O2)cc1/C=C/Br [bromovinyldeoxyuridine, reference compound]
beneficial effect compared with compound of Example 1 (0.5% w/v bromovinyldeoxyuridine vs 1% w/v Example 1 eye drops): significantly better than that of the compound of Example 1 from the fourth treatment day onwards | difference in keratitis score versus placebo [1]: statistically significant throughout the whole observation period | progression or healing of stromal disease [1]: gradual healing of stromal keratitis | suppression of stromal keratitis (eye drops, Example 1 at 1% w/v or bromovinyldeoxyuridine at 0.5% w/v, hourly nine times a day, 5 days): effective in suppressing stromal keratitis | difference in iritis scores versus placebo [2]: Significant differences | reduction in the iritis scores [2]: significant reduction in the iritis scores
